Laboratory results from article PMC7430099.

Amino acid sequences for entries named in this document (tags omitted).
UniProt P35351: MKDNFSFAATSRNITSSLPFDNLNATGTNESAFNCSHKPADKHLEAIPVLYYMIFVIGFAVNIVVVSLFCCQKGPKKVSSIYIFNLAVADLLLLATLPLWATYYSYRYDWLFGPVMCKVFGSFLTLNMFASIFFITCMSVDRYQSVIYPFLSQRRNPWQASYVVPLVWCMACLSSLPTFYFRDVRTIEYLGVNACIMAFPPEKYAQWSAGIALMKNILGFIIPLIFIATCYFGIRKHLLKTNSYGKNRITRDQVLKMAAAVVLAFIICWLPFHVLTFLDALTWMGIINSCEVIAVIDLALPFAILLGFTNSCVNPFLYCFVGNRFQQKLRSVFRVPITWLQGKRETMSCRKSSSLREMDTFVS

Assays:
[1] = target: T1, AT2 receptor, endogenous in mouse striatal primary cultures (mouse (endogenous in primary striatal microglia)) (UniProt P35374); assay: proximity ligation; in situ PLA on fixed, permeabilised mouse striatal primary microglia, resting or activated with LPS + IFN-γ; mouse anti-AT1R and rabbit anti-AT2R primary antibodies, Duolink probes, confocal microscopy
T1 sequence: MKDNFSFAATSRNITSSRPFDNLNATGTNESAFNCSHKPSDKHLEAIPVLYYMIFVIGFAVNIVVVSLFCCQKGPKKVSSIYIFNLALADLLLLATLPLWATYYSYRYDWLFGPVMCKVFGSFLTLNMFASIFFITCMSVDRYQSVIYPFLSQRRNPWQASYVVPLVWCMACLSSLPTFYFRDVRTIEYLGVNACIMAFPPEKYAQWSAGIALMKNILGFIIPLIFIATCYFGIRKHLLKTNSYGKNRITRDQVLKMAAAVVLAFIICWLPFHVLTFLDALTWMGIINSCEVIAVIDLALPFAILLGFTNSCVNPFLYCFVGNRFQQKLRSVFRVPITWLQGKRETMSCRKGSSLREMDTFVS

[2] = target: T2, AT2 receptor, endogenous in rat striatum (rat (endogenous in striatal sections)) (UniProt P35351); assay: proximity ligation; in situ PLA on 40-μm striatal sections of rats: non-lesioned, 6-OH-dopamine lesioned, lesioned plus L-DOPA dyskinetic, lesioned plus L-DOPA non-dyskinetic; mouse anti-AT1R and rabbit anti-AT2R primary antibodies, Duolink probes, confocal microscopy
T2 sequence: T1 sequence with R18L, S40A, L88V, G352S

| binding [1] | binding [2] | Substance |
| --- | --- | --- |
| binds |  | AT1 receptor, endogenous in mouse striatal primary cultures |
|  | binds | AT1 receptor, endogenous in rat striatum |

Changes are numbered by the printed parent chain. No constants are given. Whether binding was seen depends on the method and setting. Binding seen in cells or lysates may run through a third protein. Binding calls can cover weak binding; strength is not graded here.
